Among the data in article PMC6458266 are binding values, retold here.

For assay [1], the target named is T1, Flag-NEDD9 (neural precursor cell expressed developmentally downregulated protein 9) (human) (UniProt Q14511).
T1 sequence: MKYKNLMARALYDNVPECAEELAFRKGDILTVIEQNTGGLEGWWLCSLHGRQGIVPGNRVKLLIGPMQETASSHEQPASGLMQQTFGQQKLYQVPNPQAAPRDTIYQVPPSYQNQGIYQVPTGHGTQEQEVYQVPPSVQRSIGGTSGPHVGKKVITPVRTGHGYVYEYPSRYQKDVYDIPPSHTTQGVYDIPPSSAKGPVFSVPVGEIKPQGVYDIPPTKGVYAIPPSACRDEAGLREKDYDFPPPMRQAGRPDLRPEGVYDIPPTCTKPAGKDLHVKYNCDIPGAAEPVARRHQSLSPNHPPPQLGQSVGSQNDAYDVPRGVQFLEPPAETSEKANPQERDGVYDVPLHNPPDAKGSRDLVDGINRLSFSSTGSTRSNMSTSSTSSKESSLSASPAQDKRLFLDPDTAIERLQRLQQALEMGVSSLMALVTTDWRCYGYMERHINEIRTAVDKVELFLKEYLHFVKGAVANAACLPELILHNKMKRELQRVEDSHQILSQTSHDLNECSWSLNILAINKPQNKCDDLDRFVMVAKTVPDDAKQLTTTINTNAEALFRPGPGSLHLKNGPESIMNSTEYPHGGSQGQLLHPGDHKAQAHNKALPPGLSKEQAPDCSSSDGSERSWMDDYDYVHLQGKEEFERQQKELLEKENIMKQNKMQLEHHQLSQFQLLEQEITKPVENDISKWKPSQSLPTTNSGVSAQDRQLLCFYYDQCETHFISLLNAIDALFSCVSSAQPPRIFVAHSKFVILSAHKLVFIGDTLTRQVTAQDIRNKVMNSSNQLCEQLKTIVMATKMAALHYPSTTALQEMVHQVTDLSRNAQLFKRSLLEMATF
Briefly: co-IP; HEK293T cells co-transfected with HA-tagged MICAL1 and/or FLAG-tagged NEDD9; lysates incubated with antibody at 4°C for 4 h, protein A+G agarose beads, rinsed with PBS, immunoblotting. A general note: A western blot detects proteins with antibodies after separation by electrophoresis.

In assay [2] the target is T2, endogenous NEDD9 (human (endogenous in BGC-823 and SGC-7901)) (UniProt Q14511).
T2 sequence: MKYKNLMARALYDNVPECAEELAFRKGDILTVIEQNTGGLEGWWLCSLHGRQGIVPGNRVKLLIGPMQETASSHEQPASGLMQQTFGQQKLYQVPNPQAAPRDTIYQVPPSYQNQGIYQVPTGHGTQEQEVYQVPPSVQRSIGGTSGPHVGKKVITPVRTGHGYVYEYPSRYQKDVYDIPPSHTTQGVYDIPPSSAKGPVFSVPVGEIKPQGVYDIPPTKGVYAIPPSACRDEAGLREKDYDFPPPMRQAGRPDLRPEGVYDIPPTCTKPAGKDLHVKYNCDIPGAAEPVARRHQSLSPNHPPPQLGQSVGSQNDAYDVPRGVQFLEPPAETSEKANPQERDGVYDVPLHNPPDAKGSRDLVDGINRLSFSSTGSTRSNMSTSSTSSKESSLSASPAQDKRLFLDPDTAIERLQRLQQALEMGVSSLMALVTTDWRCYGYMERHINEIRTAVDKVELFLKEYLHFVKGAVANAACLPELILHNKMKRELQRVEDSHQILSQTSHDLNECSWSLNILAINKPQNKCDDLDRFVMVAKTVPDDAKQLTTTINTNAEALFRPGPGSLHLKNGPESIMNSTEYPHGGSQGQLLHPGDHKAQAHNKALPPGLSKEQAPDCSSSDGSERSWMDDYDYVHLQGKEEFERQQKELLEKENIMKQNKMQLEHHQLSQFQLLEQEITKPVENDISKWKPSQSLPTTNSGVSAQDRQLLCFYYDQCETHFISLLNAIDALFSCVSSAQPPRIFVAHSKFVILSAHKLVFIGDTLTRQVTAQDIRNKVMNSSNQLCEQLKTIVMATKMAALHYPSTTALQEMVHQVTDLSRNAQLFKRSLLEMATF
Briefly: co-IP; endogenous proteins in BGC-823 and SGC-7901 cell lysates, with and without hypoxia (1% O2); lysates incubated with antibody at 4°C for 4 h, protein A+G agarose beads, rinsed with PBS, immunoblotting.

Results are given in words; binding and its absence hold for the method and conditions named. Binding seen in cells or lysates may run through a third protein. Some entries that bind do so weakly or less than the wild type. For some assays here: Tags and fused reporters may be left off the sequences shown.

B1: HA-MICAL1 (protein, UniProt Q8TDZ2 1-1067)
chain: MASPTSTNPAHAHFESFLQAQLCQDVLSSFQELCGALGLEPGGGLPQYHKIKDQLNYWSAKSLWTKLDKRAGQPVYQQGRACTSTKCLVVGAGPCGLRVAVELALLGARVVLVEKRTKFSRHNVLHLWPFTIHDLRALGAKKFYGRFCTGTLDHISIRQLQLLLLKVALLLGVEIHWGVTFTGLQPPPRKGSGWRAQLQPNPPAQLANYEFDVLISAAGGKFVPEGFKVREMRGKLAIGITANFVNGRTVEETQVPEISGVARIYNQSFFQSLLKATGIDLENIVYYKDDTHYFVMTAKKQCLLRLGVLRQDWPDTNRLLGSANVVPEALQRFTRAAADFATHGKLGKLEFAQDAHGQPDVSAFDFTSMMRAESSARVQEKHGARLLLGLVGDCLVEPFWPLGTGVARGFLAAFDAAWMVKRWAEGAESLEVLAERESLYQLLSQTSPENMHRNVAQYGLDPATRYPNLNLRAVTPNQVRDLYDVLAKEPVQRNNDKTDTGMPATGSAGTQEELLRWCQEQTAGYPGVHVSDLSSSWADGLALCALVYRLQPGLLEPSELQGLGALEATAWALKVAENELGITPVVSAQAVVAGSDPLGLIAYLSHFHSAFKSMAHSPGPVSQASPGTSSAVLFLSKLQRTLQRSRAKENAEDAGGKKLRLEMEAETPSTEVPPDPEPGVPLTPPSQHQEAGAGDLCALCGEHLYVLERLCVNGHFFHRSCFRCHTCEATLWPGGYEQHPGDGHFYCLQHLPQTDHKAEGSDRGPESPELPTPSENSMPPGLSTPTASQEGAGPVPDPSQPTRRQIRLSSPERQRLSSLNLTPDPEMEPPPKPPRSCSALARHALESSFVGWGLPVQSPQALVAMEKEEKESPFSSEEEEEDVPLDSDVEQALQTFAKTSGTMNNYPTWRRTLLRRAKEEEMKRFCKAQTIQRRLNEIEAALRELEAEGVKLELALRRQSSSPEQQKKLWVGQLLQLVDKKNSLVAEEAELMITVQELNLEEKQWQLDQELRGYMNREENLKTAADRQAEDQVLRKLVDLVNQRDALIRFQEERRLSELALGTGAQG
In the case of B1, in assay [1], the binding result is reported as “binds”.

B2: endogenous MICAL1 (protein, UniProt Q8TDZ2 1-1067)
chain: MASPTSTNPAHAHFESFLQAQLCQDVLSSFQELCGALGLEPGGGLPQYHKIKDQLNYWSAKSLWTKLDKRAGQPVYQQGRACTSTKCLVVGAGPCGLRVAVELALLGARVVLVEKRTKFSRHNVLHLWPFTIHDLRALGAKKFYGRFCTGTLDHISIRQLQLLLLKVALLLGVEIHWGVTFTGLQPPPRKGSGWRAQLQPNPPAQLANYEFDVLISAAGGKFVPEGFKVREMRGKLAIGITANFVNGRTVEETQVPEISGVARIYNQSFFQSLLKATGIDLENIVYYKDDTHYFVMTAKKQCLLRLGVLRQDWPDTNRLLGSANVVPEALQRFTRAAADFATHGKLGKLEFAQDAHGQPDVSAFDFTSMMRAESSARVQEKHGARLLLGLVGDCLVEPFWPLGTGVARGFLAAFDAAWMVKRWAEGAESLEVLAERESLYQLLSQTSPENMHRNVAQYGLDPATRYPNLNLRAVTPNQVRDLYDVLAKEPVQRNNDKTDTGMPATGSAGTQEELLRWCQEQTAGYPGVHVSDLSSSWADGLALCALVYRLQPGLLEPSELQGLGALEATAWALKVAENELGITPVVSAQAVVAGSDPLGLIAYLSHFHSAFKSMAHSPGPVSQASPGTSSAVLFLSKLQRTLQRSRAKENAEDAGGKKLRLEMEAETPSTEVPPDPEPGVPLTPPSQHQEAGAGDLCALCGEHLYVLERLCVNGHFFHRSCFRCHTCEATLWPGGYEQHPGDGHFYCLQHLPQTDHKAEGSDRGPESPELPTPSENSMPPGLSTPTASQEGAGPVPDPSQPTRRQIRLSSPERQRLSSLNLTPDPEMEPPPKPPRSCSALARHALESSFVGWGLPVQSPQALVAMEKEEKESPFSSEEEEEDVPLDSDVEQALQTFAKTSGTMNNYPTWRRTLLRRAKEEEMKRFCKAQTIQRRLNEIEAALRELEAEGVKLELALRRQSSSPEQQKKLWVGQLLQLVDKKNSLVAEEAELMITVQELNLEEKQWQLDQELRGYMNREENLKTAADRQAEDQVLRKLVDLVNQRDALIRFQEERRLSELALGTGAQG
In the case of B2, the binding entry in assay [2] is “binds”.
